These results are taken from patent publication US20130287795A1.

By UniProt entry, the sequences of proteins in these tests, tags left out. Residues count along the entry.
UniProt P52800, residues 27-227: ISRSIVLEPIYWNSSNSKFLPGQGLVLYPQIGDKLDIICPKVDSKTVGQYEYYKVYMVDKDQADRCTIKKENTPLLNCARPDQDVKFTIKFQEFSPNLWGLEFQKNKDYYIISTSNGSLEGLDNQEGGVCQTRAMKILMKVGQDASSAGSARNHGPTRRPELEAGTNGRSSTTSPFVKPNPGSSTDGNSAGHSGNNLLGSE

These are yes or no findings as the source states them, for the method shown. Some entries that bind do so weakly or less than the wild type.

Assay [1] addresses recombinant mouse ephrin B2-Fc (R & D) (mouse) (UniProt P52800). In words: immunoblot; periplasmic fraction of the scFv, detected with anti c-Myc and anti-mouse peroxidase conjugate. On the technique in general: Immunoblotting shows a protein as a band on a membrane.
The target is the same in assay [2]. As to the kind of experiment: immunoblot (Western blot), confirmed by ELISA.

B1: scFv B11 (human anti-ephrin B2 single chain variable fragment) (scFv)
scFv: QVQLVQSGAEVKKPGASVRLSCEASGYTFTDYYIHWVRQAPGQGLEWMGWMNPSSGNTGYAQKFQGRVTMTRNTSISTAYMELSSLRSEDTAVYYCARDITGTATGFDYWGQGTLVTVSSGGGGSGGGGSGGGGSEIVLTQSPLSLPVTLGQPASISCRSSQSLLHSNGYNYLDWYLQKPGQSPQLLIYLGSNRASGVPDRFSGSGSGTDFTLKISRVEAEDVGVYYCMQGLLSPVTFGQGTRLDIKRTVAAPTAAAEQKLISEEDLNGAALEHHHHHH
For the molecule B1, the binding entry in assay [1] and in assay [2] was “binds” each time.

B2: scFv 2B1 (human anti-ephrin B2 single chain variable fragment) (scFv)
scFv: QVQLVQSGGGLVQPGRSLRLSCAASGFTFDDYAMHWVRQAPGKGLEWVSGISWNSGSIGYADSVKGRFTISRDNAKNSLYLQMNSLRAEDTALYYCARGHRTSDAFDIWGQGTMVTVSSGGGGSGGGGSGGGGSQPVLTQPPSVSLAPGKTARITCGGDSIGLKSVHWYQQKPGQAPVLVMSSDSDRPSGIPDRFSGSNSGNTATLTITRVEAGDEADYYCQVWDSSSDHMVFGGGTKLTVLGQPKAAPSAAALEDYKDDDDKHHHHHH
Consider B2, for which the binding entry in assay [1] and in assay [2] was “binds” in each case.
